# Reference: the supplement of paper PMC3334620
# The full ranking holds about 33,000 sequences; the median of “E-score (-0.5 to 0.5)” is about -0.016, and the highest 2% start at about 0.3. The list shows a part of the results.
# Molecular target: T1, Yer184c (UniProt P39961)
# T1 sequence: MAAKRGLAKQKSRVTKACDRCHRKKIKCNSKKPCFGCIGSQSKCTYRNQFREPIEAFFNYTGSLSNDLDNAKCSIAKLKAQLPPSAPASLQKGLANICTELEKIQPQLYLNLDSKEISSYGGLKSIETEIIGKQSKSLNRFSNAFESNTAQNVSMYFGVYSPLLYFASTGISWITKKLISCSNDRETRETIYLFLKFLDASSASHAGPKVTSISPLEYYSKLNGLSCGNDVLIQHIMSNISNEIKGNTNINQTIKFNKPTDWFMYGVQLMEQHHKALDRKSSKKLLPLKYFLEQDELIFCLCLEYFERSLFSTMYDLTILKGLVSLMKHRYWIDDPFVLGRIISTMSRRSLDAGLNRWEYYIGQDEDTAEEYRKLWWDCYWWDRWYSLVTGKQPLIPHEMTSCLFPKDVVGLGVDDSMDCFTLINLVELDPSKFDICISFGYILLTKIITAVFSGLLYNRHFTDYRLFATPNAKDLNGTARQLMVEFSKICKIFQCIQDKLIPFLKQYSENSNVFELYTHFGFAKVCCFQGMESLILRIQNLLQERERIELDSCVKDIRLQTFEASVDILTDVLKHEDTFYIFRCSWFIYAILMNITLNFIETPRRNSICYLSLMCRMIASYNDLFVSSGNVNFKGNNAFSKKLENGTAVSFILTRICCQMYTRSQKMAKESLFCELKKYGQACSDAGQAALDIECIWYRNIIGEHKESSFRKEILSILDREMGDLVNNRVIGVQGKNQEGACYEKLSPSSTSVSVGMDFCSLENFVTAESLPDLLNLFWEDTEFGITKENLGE
# Assay: PBM E-score (8-mer binding enrichment) (E-score (-0.5 to 0.5)); higher = stronger / more preferred TF binding
# Conditions: protein concentration: 100 nM; construct: GST-full length
# In short: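 PURExpress in vitro transcription/translation supplied GST-tagged yeast transcription factors, either full-length or DNA-binding domain. Applied at about 100-200 nM to universal all-10-mer Agilent arrays double-stranded by primer extension, the bound protein was detected with fluorescent anti-GST. E-scores, modified Wilcoxon-Mann-Whitney statistics, were given by the Universal PBM Analysis Suite to ungapped eight-base words pooled with their reverse complements after masliner normalisation.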
row,Sequence,PBM E-score
1,AGTTGAGC,-0.12
2,ATCTCGTG,-0.103
3,ATTCCCCC,-0.2
4,TGGTTTAA,0.0779
5,CACGCCCC,-0.191
6,ATACGCAG,-0.155
7,ATCACTCC,-0.0246
8,GTGCAGTA,0.0537
9,GAGCTGGA,-0.0682
10,GCCAACAC,0.0745
11,CAATCTTC,0.151
12,CCCGTACA,-0.271
13,ACGCTTCT,-0.125
14,GATAGCTA,-0.0392
15,CGACTGAC,-0.187
16,GTACCAGA,-0.104
17,CAAATATC,0.223
18,CCGCGCAA,0.0053
19,CGATTCGA,0.181
20,AATGCCCC,-0.229
21,ACACTAGT,-0.0708
22,ATGGCTTG,-0.123
23,ATTTACTG,0.105
24,AATTGGGA,0.0601
25,AACCTGTG,-0.147

row,Sequence,PBM E-score
1,TAACGCTA,-0.118
2,AACAATGT,0.146
3,AGATAGCG,-0.141
4,AACGACCG,0.0091
5,AGTAAATA,0.167
6,ATCTCTGC,-0.00621
7,GTTTGCAA,0.165
8,AGGTTGTC,-0.228
9,CGACGCTC,0.0205
10,ACGCTGTC,-0.159
11,AAGGCCTC,-0.212
12,ATATTTTC,0.202
13,ACTCAAGA,-0.17
14,CTGCACAC,-0.207
15,CTGGGCCC,-0.166
16,CCTAGTCG,-0.181
17,CTACGAGC,-0.197
18,AACTTGGG,-0.171
19,GACCGCCA,-0.12
20,CGTGAGTA,0.0198
21,AAGCTCGC,0.0328
22,CACCACCC,-0.132
23,CAACCGCA,0.0386
24,ATGATCTC,-0.0245
25,CGTACTTA,-0.058

# Exported tab-delimited: part of the list above.
row	Sequence	PBM E-score
1	AGTTGAGC	-0.12
2	ATCTCGTG	-0.103
3	ATTCCCCC	-0.2
4	TGGTTTAA	0.0779
5	CACGCCCC	-0.191
6	ATACGCAG	-0.155
7	ATCACTCC	-0.0246
8	GTGCAGTA	0.0537
9	GAGCTGGA	-0.0682
10	GCCAACAC	0.0745
11	CAATCTTC	0.151
12	CCCGTACA	-0.271
13	ACGCTTCT	-0.125
14	GATAGCTA	-0.0392
15	CGACTGAC	-0.187
16	GTACCAGA	-0.104
17	CAAATATC	0.223
18	CCGCGCAA	0.0053
19	CGATTCGA	0.181
20	AATGCCCC	-0.229
21	ACACTAGT	-0.0708
22	ATGGCTTG	-0.123
23	ATTTACTG	0.105
24	AATTGGGA	0.0601
25	AACCTGTG	-0.147
1	TAACGCTA	-0.118
2	AACAATGT	0.146
3	AGATAGCG	-0.141
4	AACGACCG	0.0091
5	AGTAAATA	0.167
6	ATCTCTGC	-0.00621
7	GTTTGCAA	0.165
8	AGGTTGTC	-0.228
9	CGACGCTC	0.0205
10	ACGCTGTC	-0.159
11	AAGGCCTC	-0.212
12	ATATTTTC	0.202
13	ACTCAAGA	-0.17
14	CTGCACAC	-0.207
16	CCTAGTCG	-0.181
17	CTACGAGC	-0.197
18	AACTTGGG	-0.171
19	GACCGCCA	-0.12
20	CGTGAGTA	0.0198
21	AAGCTCGC	0.0328
22	CACCACCC	-0.132
23	CAACCGCA	0.0386
24	ATGATCTC	-0.0245
25	CGTACTTA	-0.058

# Additional entries follow:

row,Sequence,PBM E-score
1,CACTCTGG,-0.0982
2,AGCCAATA,-0.128
3,AAATAGTC,-0.0425
4,GAGAAGGC,-0.147
5,CGAGGTGA,0.15
6,GGAATCTA,0.056
7,CCATGGGG,-0.194
8,CACTCCCC,-0.0415
9,AAGCTAAC,-0.0155
10,ATATTGAG,0.0479
11,CTCCCTGA,-0.32
12,CACCAAAG,0.0906
13,CTACCTGA,-0.114
14,AATTGCCT,0.0752
15,CCGTCTTC,0.0628
16,AGACCCAT,-0.227
17,ACGGAGAA,0.171
18,CGGGAGCA,0.0569
19,CACTTTGC,0.0883
20,GGTGCAGA,-0.206
21,ATGAACCC,0.0487
22,TATGTCCA,-0.102
23,GCAGCAAC,0.153
24,AGCGCTGG,-0.0341
25,AGGCCGAT,0.184

row,Sequence,PBM E-score
1,AACTTCCA,0.0737
2,AATCCATT,0.186
3,CAATTTCC,0.189
4,ATACATCC,0.069
5,GATGCAGC,0.0471
6,CAACTAGG,-0.0391
7,ATTACAAA,0.161
8,TCACCACA,0.00117
9,CAGGTATC,-0.00191
10,AACAATAC,0.0929
11,CATTTTTC,0.194
12,CTTCGCAC,-0.0518
13,TGGAACAA,0.195
14,AATGCGCA,0.208
15,AGTTACGG,0.0354
16,GTCTCATA,-0.0146
17,GTGCGTAA,-0.0289
18,ACAAGAGC,-0.0386
19,CAGACAGC,-0.102
20,ATGTATTG,0.14
21,AATTCCTG,-0.118
22,AAATCGAG,0.103
23,ACCAGGGG,-0.349
24,ACTAATAC,0.262
25,CCATGTAC,-0.139

row,Sequence,PBM E-score
1,CGGCCTTC,0.33
2,GGTTTGTA,0.0405
3,CGCTGCAC,-0.175
4,GCCGTAAC,0.111
5,CTGTTAAA,-0.0216
6,CAAGCCAC,-0.396
7,AGACCCTA,-0.199
8,AAATACGC,0.0781
9,AAGTCTTC,-0.0968
10,ATTCAGCG,0.0517
11,CGGCACAA,0.177
12,AAATCCGC,-0.00733
13,GACCCACA,0.0155
14,AGATGTTC,0.00961
15,ACAATTCG,0.093
16,ATACGAAA,0.188
17,CCGCCCGA,0.148
18,TCGAATCA,-0.0385
19,GCCCACAA,-0.13
20,ACGGCACC,-0.0473
21,CATTCCTA,-0.098
22,ACTCCTTA,-0.154
23,AAGTATAA,0.0494
24,CAATGGCG,-0.0265
25,TCGAGGCA,0.0664

row,Sequence,PBM E-score
1,AGCTCGAA,0.178
2,TCATTCCA,-0.0133
3,GTGCCGCA,0.232
4,CAGCCGGA,0.392
5,AATACTGC,0.0826
6,CAGCGGTA,0.0738
7,CATAGAAG,0.107
8,ACGCCGCA,0.0659
9,TCCCTCCA,-0.214
10,AGCCTAGA,-0.133
11,CGTAGGGC,-0.264
12,AATTGACA,0.0558
13,GAAATGGC,-0.114
14,AAAAGCGC,0.111
15,CAGTTACC,-0.0418
16,ACGGGACT,-0.0211
17,GATAAATC,0.238
18,ACCTAAGT,0.101
19,AACTAACC,0.256
20,ATTGTCAA,-0.0116
21,CGAGAGCC,-0.151
22,GACTCCCC,-0.236
23,GCGGCGTA,-0.0609
24,AACCCCAC,-0.352
25,CAAGCACG,-0.00337

row,Sequence,PBM E-score
1,AACCCCAT,-0.129
2,ACCGTCAT,-0.0508
3,ACCACTAG,-0.229
4,CCTCGACG,-0.0343
5,CGGCCCAG,0.225
6,AACCTTGT,-0.322
7,CAGGGGTA,-0.243
8,CGCTAGCG,-0.28
9,TCTTCCCA,-0.159
10,GCGACAGC,-0.104
11,AAGATGCT,0.00593
12,AAGAATGA,0.027
13,CCCGTCCG,-0.128
14,ACTCCAGC,-0.279
15,CCAATCCA,-0.0477
16,AAACTACC,0.1
17,ATTAATTA,0.155
18,AGGAGTGA,-0.116
19,ACGTGGCC,-0.288
20,CGTTTCGA,0.0222
21,CAACCCGA,0.0679
22,ACATGGCA,-0.0125
